In publication PMC3855701:
Results are given in words; binding and its absence hold for the method and conditions named. In cells and extracts the contact can be indirect. Some entries that bind do so weakly or less than the wild type.

Sequences of proteins named here, by UniProt entry; tags and fusion partners are left off. Residues count along the entry.
UniProt P38647, residues 47-679: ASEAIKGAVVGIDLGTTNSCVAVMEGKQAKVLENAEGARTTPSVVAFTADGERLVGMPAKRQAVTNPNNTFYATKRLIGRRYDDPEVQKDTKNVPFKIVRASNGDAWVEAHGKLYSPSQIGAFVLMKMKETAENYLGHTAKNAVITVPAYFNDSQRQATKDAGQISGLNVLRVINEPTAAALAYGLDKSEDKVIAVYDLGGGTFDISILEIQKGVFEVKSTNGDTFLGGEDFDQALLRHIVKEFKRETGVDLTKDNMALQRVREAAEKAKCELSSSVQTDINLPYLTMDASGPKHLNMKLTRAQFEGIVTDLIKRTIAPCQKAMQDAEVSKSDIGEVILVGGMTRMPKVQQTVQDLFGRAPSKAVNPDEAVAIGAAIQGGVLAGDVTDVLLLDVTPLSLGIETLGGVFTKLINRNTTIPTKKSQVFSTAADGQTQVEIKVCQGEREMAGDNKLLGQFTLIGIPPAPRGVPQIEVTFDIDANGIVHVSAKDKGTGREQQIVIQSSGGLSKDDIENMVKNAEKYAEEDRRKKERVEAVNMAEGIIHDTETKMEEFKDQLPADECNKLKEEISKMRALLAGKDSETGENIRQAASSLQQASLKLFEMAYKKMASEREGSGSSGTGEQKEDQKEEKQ
UniProt P63038, residues 27-573: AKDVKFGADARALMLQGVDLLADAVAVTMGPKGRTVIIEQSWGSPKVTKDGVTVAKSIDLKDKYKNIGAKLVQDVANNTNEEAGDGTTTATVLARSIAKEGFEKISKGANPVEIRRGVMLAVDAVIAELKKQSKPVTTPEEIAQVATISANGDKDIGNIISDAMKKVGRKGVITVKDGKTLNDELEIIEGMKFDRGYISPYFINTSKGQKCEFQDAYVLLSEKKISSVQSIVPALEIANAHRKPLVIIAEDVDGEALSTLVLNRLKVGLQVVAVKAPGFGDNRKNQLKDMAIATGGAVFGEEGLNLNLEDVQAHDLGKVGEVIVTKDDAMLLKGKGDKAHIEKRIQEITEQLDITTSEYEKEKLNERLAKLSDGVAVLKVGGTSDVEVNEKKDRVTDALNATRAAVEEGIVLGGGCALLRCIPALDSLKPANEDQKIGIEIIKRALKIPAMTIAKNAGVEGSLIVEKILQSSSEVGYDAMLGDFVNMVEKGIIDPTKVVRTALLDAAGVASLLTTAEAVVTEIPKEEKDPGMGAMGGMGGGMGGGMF

What was measured:
[1] = target: T1, Mitochondrial transcription factor A (mouse (endogenous in quadriceps femoris muscle)) (UniProt P40630); assay: condition: only sample heat denatured at 95°C before the immunoprecipitation; co-IP; as the TFAM immunoprecipitation, but the sample was heat denatured at 95°C (5 minutes) before the immunoprecipitation (control, Figure S3C)
T1 sequence: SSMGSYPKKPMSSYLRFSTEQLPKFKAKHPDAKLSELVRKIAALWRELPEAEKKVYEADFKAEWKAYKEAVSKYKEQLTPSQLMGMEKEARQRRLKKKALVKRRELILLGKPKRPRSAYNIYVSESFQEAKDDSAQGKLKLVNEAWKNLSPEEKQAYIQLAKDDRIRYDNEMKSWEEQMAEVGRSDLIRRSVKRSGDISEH

[2] = target: T1, Mitochondrial transcription factor A (mouse (endogenous in quadriceps femoris muscle)); assay: co-IP; anti-TFAM antibody on protein A/G plus agarose beads; isolated mitochondria lysates (200 ug) of quadriceps femoris muscle solubilized with 1% n-dodecyl maltoside, overnight at 4°C; eluted with 1% SDS; blots for GRP75 and HSP60; Sod2+/+ and Sod2+/- mice, sedentary or exercise trained

In the case of GRP75 (from UniProt P38647 47-679), the binding [1] is reported as “no binding” and the binding [2] is reported as “binds”.
For HSP60 (from UniProt P63038 27-573), the binding [1] was “no binding” and the binding [2] was “binds”.
